Experimental findings from the supplement of paper PMC11237882 are described below.

The chains are these.
T1: Homer1 EVH1 domain
T1 chain: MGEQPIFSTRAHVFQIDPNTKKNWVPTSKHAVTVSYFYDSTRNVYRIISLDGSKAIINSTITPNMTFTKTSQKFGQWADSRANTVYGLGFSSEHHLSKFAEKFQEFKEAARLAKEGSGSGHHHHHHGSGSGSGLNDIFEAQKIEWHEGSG

This is one part of the list. Values are worked out from sequencing counts and are noisy.

In this assay the target is T1, Homer1 EVH1 domain. The experiment in a line: enrichment score (AUC of log2 frequency ratio across FACS sorting rounds) (log2 AUC); higher = stronger enrichment for Homer1 EVH1 binding.
Regarding MLALAKILLISTLFYSLLSGSQGKENQDINTTQNIA, the enrichment score was 4.48.

With SSHPNKAGQGHVGNIFQRLSGRYPKVQELLQGKRAR, the enrichment score came out at 2.78.

Turning to MATARPPWMWVLCALITALLLGVTEHVLANNDVSCD, the enrichment score was 1.32.

On to MKRVLVLLLAVTFGHALERGRDYEKNKVCKEFSHLG, for which the enrichment score is -0.441.

With STYINELLVLVLSAFNVLTPALTILASYIFIIASIS, the enrichment score came out at 2.99.

For LISTLILVILSYTYIIRTILRIPSAQQRKKAFSTCF, the enrichment score was 3.44.

With VAAWVGGFVHSIAQLALILPLPFCGPNILDNFYCDV, the enrichment score is 0.674.

Turning to NVSRQIEDTVLYGYYTLYSVILFCVFFWIPFVYFYY, the enrichment score came out at 3.52.

Regarding TIILAASLSSVASWLALSCLVCCWLKRSKSRKTKPE, the enrichment score amounted to 0.507.

In the case of MGAQLSTLGHMVLFPVWFLYSLLMKLFQRSTPAITL, the enrichment score was 0.885.

For MMSFAPNASHSPVFLLLGFSRANISYTLLFFLFLAI, the enrichment score is 2.83.

Take TSGSHMQPPAPAWETSLLLVLGVVIVLLAQCPMGRY: the enrichment score is 3.67.

Take SAEGRWKACNTCASHLMVVTLLFGTALFVYLRPSSS: the enrichment score was 1.78.

For the molecule DGFLVNYQESQSVIHNLLDQIPDMFADSNENETVFA, the enrichment score worked out at 0.433.

Turning to KMKMTDTSEKPLWRTVLNVNGIILVTVAVFCHAYFA, the enrichment score worked out at 0.852.

In the case of YPERPIIFYAVCYMMVSLIFFIGFLLEHRVACNASI, the enrichment score was found to be 3.92.

LSTTYVGFCVYAGFFGFAFGWLSSVLFETLMDLVGP: the enrichment score was -0.0232.

For the molecule YFIPNWQGIQLAITLPSFLFLLYYWVVPESPRWLIT, the enrichment score stood at 1.4.

Take LARIKWDPSDPQIISEGLYAIAVVLSFSRIAYILPA: the enrichment score was -4.16.

As for MLLLLLLAPLFLRPPGAGGAQTPNATSEGCQIIHPP, the enrichment score is 0.497.

Take MEKGLTLPQDCRDFVHSLKMRSKYALFLVFVVIVFG: the enrichment score was -1.13.

Regarding TGIRRHLHILIGPSVAIILFIILFFFLLHCCCSNKK, the enrichment score is -2.94.

As to TSHRETQKAYLLAAGVIVCIYIICAVILILGVREQR, the enrichment score was found to be 1.83.

Take HLSFPFSIIFSTVLYCGEVAFGLYMFEIYRKANDTF: the enrichment score amounted to 2.03.

As to ESLDFHLIVKDKTVGVPIEPIIAACVVIFLTLCFGL, the enrichment score is -0.332.

Take TVYPVPEGITCGVVTFLSNMFMGVLLFFLTFYHTEL: the enrichment score was -2.22.

For PPADLPLALPAHGLWSRHILQQTLMDEGLRLARLVS, the enrichment score is -0.81.

With MAKATSGAAGLRLLLLLLLPLLGKVALGLYFSRDAY, the enrichment score was -3.52.

Take MGSLLALLALLPLWGAVAEGPAKRVLTLEGDLVLGG: the enrichment score is 0.269.

With CKDYALSYLSLRACIGLWTAFLCIVLVATDASSLVC, the enrichment score is -0.196.

In the case of MNTTSSAAPPSLGVEFISLLAIIPLSVALAVGLPGN, the enrichment score came to 2.89.

As for FVNGVYAFGFLFMLPQLFVNYKLKSVAHLPWKAFTY, the enrichment score was determined as 2.8.

As for MKTLPAMLGTGKLFWVFFLIPYLDIWNIHGKESCDV, the enrichment score turned out to be 1.39.

IGLIVASFSASVCSLLAITVDRYLSLYYALTYHSER: the enrichment score was -2.34.

With IKGKLFTWNILKTIALGQMLSLCICGTAITSQYLAE, the enrichment score was -0.0144.

With AFAALICIIFIYEALEKLFDLGETYAFNMHNNLDKL, the enrichment score turned out to be 1.85.

In the case of RLLFAKLFGHLTSARRARKSEVPHFRLKKVQNIKMW, the enrichment score is -1.45.

For PSGPRWPRLAASSKTSRPRLKGKITAPGGAMERGRA, the enrichment score was -1.35.

Regarding GPLAEVRDLPGSAPAKEDGFSWLLPPPPPPPLPFQT, the enrichment score amounted to 1.67.

In the case of IVFMTFVVLNLFISVILVAFSEEQKYYQLSEEGEIV, the enrichment score was -3.01.

As to KIDRMSRIVFPVLFGTFNLVYWATYLNREPVLGVSP, the enrichment score was determined as 1.22.

With NNNTAAKGKRTKKGMATAKQRLGKILKIHRNGKPLL, the enrichment score was 2.5.

On to FSSLIGSGCQIFAVSLIVIIVAMIEDLYTERGSMLS, for which the enrichment score amounted to 1.52.

For the molecule TTSPFSLFPPPPLAKALNLAILLGCLTICPALDSQS, the enrichment score was 0.496.
